Reference: PMC8556400
No constants are given. Whether binding was seen depends on the method and setting. Binding seen in cells or lysates may run through a third protein. Some entries that bind do so weakly or less than the wild type.

Biological target: T1, Matrin-3 (Matr3), endogenous mouse (mouse (endogenous in MEL)) (UniProt Q8K310)
T1 sequence: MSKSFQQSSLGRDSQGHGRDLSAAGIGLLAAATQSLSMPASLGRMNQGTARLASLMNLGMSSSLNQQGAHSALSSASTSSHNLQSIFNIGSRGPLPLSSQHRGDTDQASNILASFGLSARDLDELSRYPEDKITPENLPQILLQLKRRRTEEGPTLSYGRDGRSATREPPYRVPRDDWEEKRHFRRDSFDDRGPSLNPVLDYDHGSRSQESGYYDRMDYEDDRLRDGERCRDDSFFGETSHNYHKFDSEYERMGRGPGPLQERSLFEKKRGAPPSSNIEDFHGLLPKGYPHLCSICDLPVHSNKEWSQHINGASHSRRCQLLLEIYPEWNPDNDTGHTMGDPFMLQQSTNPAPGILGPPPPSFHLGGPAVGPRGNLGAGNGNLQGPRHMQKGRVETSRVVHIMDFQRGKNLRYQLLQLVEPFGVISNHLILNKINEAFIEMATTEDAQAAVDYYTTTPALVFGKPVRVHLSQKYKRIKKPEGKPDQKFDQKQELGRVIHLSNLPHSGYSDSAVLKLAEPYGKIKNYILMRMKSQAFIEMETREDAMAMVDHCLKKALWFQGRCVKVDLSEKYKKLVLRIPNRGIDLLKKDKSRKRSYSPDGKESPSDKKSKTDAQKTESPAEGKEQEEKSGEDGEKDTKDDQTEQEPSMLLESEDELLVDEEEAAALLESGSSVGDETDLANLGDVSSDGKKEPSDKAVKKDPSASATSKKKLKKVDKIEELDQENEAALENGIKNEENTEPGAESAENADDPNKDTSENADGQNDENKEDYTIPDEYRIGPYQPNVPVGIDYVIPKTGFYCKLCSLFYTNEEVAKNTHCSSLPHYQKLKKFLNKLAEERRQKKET
Experiment: co-IP; MEL nuclear extracts incubated with antibody to endogenous Matr3 overnight at 4 °C; Protein G/A magnetic beads; IP buffer 20 mM HEPES pH 7.9, 25% glycerol, 200 mM NaCl, 1.5 mM MgCl2, 0.2 mM EDTA, 0.02% NP-40; Western blot

B1: CCCTC-binding factor (CTCF) (protein, UniProt Q61164 1-736)
chain: MEGEAVEAIVEESETFIKGKERKTYQRRREGGQEEDACHLPQNQTDGGEVVQDVNSSVQMVMMEQLDPTLLQMKTEVMEGTVAPEAEAAVDDTQIITLQVVNMEEQPINIGELQLVQVPVPVTVPVATTSVEELQGAYENEVSKEGLAESEPMICHTLPLPEGFQVVKVGANGEVETLEQGELPPQEDSSWQKDPDYQPPAKKTKKTKKSKLRYTEEGKDVDVSVYDFEEEQQEGLLSEVNAEKVVGNMKPPKPTKIKKKGVKKTFQCELCSYTCPRRSNLDRHMKSHTDERPHKCHLCGRAFRTVTLLRNHLNTHTGTRPHKCPDCDMAFVTSGELVRHRRYKHTHEKPFKCSMCDYASVEVSKLKRHIRSHTGERPFQCSLCSYASRDTYKLKRHMRTHSGEKPYECYICHARFTQSGTMKMHILQKHTENVAKFHCPHCDTVIARKSDLGVHLRKQHSYIEQGKKCRYCDAVFHERYALIQHQKSHKNEKRFKCDQCDYACRQERHMIMHKRTHTGEKPYACSHCDKTFRQKQLLDMHFKRYHDPNFVPAAFVCSKCGKTFTRRNTMARHADNCAGPDGVEGENGGETKKSKRGRKRKMRSKKEDSSDSEENAEPDLDDNEEEEEPAVEIEPEPEPQPQPPPPPQPVAPAPPPAKKRRGRPPGRTNQPKQNQPTAIIQVEDQNTGAIENIIVEVKKEPDAEPAEGEEEEAQAATTDAPNGDLTPEMILSMMDR
Question: B1 was tested. Which binding did it give?
Answer: The binding was “binds”.
